# Assay results taken from PubChem BioAssay AID493014 (National Center for Advancing Translational Sciences (NCATS), 2011).
# The other results are listed elsewhere or left out. Shown are side measurements of this screen, not its main read-out; they come without a call. Most of these compounds were active or inconclusive in the main read-out, so they are no random draw. Potencies come from curve fits of mixed quality, noted in brackets.
# Assay: qHTS Assay to Find Inhibitors of Chronic Active B-Cell Receptor Signaling
# Conditions: ABC-DLBCL IkBa-CBG/CBR reporter, luminescence ratio (green luciferase fused to IkBa over red control in TMD8 lymphoma cells), 4 h
# How it was run: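 Doxycycline induced both beetle luciferases in TMD8 lymphoma cells; IKK-driven degradation limits the IkappaBalpha-fused green signal, while red luminescence normalises for cell number and nonspecific effects. Compounds tested up to 46 uM, 4 hrs.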
# [1] = measured here: CBR red luminescence, cell number
# [2] = measured here: IkBa-CBG green luminescence
SMILES,AC50 [1],AC50 [2]
CCOC(=O)c1c(O)c2ccccc2n(C)c1=O,"12.6 µM [falling, partial curve, poor fit]",
COC(=O)C1CCN(C(=O)/C=C/c2ccc(OC)cc2)CC1,"0.092 µM [falling, full curve]",
C=CCn1c(N2CCCCCC2)nc2c1c(=O)n(C)c(=O)n2C,"0.2 µM [falling, full curve, poor fit]",
C=C(C)COc1ccc(-c2nc(N)nc(C)c2-c2ccc(OC)cc2)c(O)c1,"6.51 µM [rising, single point]",
CCCCNC(=O)N(CC)c1c(N)n(Cc2ccccc2)c(=O)[nH]c1=O,"14.1 µM [rising, single point]",
Clc1ccc(OCCOCCNCc2ccccc2)cc1Cl,"35.5 µM [falling, single point]",
O=C(CSc1ncnc2ccccc12)Nc1ccc2c(c1)OCO2,"29.1 µM [falling, single point]",
O=C1CCC/C(=N/NC(=O)c2ccc(NS(=O)(=O)c3cccs3)cc2)C1,"8.91 µM [falling, partial curve]",
CCOC(=O)c1[nH]c(CN2CCN(c3ccc(OC)cc3)CC2)c(C(=O)OCC)c1C,"0.708 µM [rising, full curve, poor fit]",
COC(=O)c1ccc(CN2C(=O)NC3(CCC(C)CC3)C2=O)cc1 (stereo not given),"35.5 µM [falling, single point]",
COc1ccc2nc(SCC(=O)C(C)(C)C)[nH]c2c1,"0.794 µM [rising, full curve, poor fit]",
CCC(C)NC(=O)CSc1nc2n[nH]c(C)c2c(=N)n1-c1cc(Cl)ccc1C (stereo not given),"0.708 µM [rising, partial curve, poor fit]",
O=C(NCc1ccccn1)C(=O)Nc1cccc2ccccc12,"7.08 µM [falling, partial curve]",
O=C(Nc1nnc(C2CC2)s1)c1cccs1,"12.6 µM [falling, partial curve]",
COC(=O)C1=C(C)NC(=O)/C1=C\c1ccc2c(c1)OCO2,"11.2 µM [falling, partial curve]",
O=C(Nc1cccc(Cl)c1)Nc1cc(S(=O)(=O)N2CCOCC2)ccc1N1CCCC1,"13 µM [rising, partial curve, poor fit]",
CC(C)CC1(C)NC(=O)N(CC(=O)Nc2cccc(S(=O)(=O)N(C)c3ccccc3)c2)C1=O (stereo not given),"1.58 µM [falling, partial curve, poor fit]",
C[C@H](CO)N1C[C@H](C)[C@@H](CN(C)Cc2ccc(C(=O)O)cc2)Oc2c(NC(=O)C3CC3)cccc2C1=O,"23.1 µM [rising, partial curve, poor fit]",
Cc1cn(C)c(CC(=O)N2CCN(c3cccc(Cl)c3)CC2)c1C(=O)O,"12.6 µM [falling, single point]",
Cc1ccc(-c2nc(C#N)c(N3CCC(C)CC3)o2)cc1,"3.16 µM [rising, partial curve, poor fit]",
COc1ccc(Nc2nnc(-c3ccc(O)cc3)c3ccccc23)cc1,"12.6 µM [falling, single point]",
OCCC1CN(Cc2c(O)ccc3ccccc23)CCN1CCc1ccccc1 (stereo not given),"0.501 µM [falling, full curve, poor fit]",

SMILES,AC50 [1],AC50 [2]
C/C=C\C(=O)Nc1cccc(C2=NOC3(C2)C[C@@H](C(N)=O)N(C(=O)CC(c2ccccc2)c2ccccc2)C3)c1 (stereo not given in full),"35.5 µM [falling, single point]",
CCOC(=O)C1(C)C(C(=O)OC)=C(c2ccc(OC)cc2)c2ccccc2N1C(=O)OC (stereo not given),,"14.6 µM [falling, partial curve, poor fit]"
CCN1CCN(Cc2ccc(NC(=O)c3cc(NC(=O)c4cc(-c5ccc(OC)cc5)n[nH]4)cc(OC)c3)cc2C(F)(F)F)CC1,"11.2 µM [falling, partial curve]",
COc1ccc(OC)c(-c2nnc3n2N=C(c2ccc(OC)c(OC4CCCC4)c2)CS3)c1,"4.61 µM [falling, single point]","9.2 µM [falling, single point]"
O=C(CN1C(=O)C2CC=CCC2C1=O)Nc1nc(-c2ccc(F)cc2)cs1 (stereo not given),"9.2 µM [falling, partial curve]",
O=C(Nc1nc(-c2ccncc2)cs1)C1c2ccccc2Oc2ccccc21,"29.1 µM [falling, single point]",
COc1ccc(NC(=O)c2c(NCc3sccc3C)sc3c2CCCC3)c(OC)c1,"14.1 µM [rising, single point]",
Cc1ccc(NC(=O)COC(=O)C(NS(=O)(=O)c2ccc(Cl)cc2)C(C)O)cc1C (stereo not given),"7.31 µM [falling, partial curve]",
CC(=O)Nc1ccc(NC(=O)c2ccc(-c3ccccc3Cl)o2)cc1,"20.6 µM [rising, partial curve, poor fit]",
CCOc1ccc(NC(=O)c2c(NC(=O)CNCCN3CCOCC3)sc3c2CCC3)cc1,"15.8 µM [falling, single point]",
Cc1ccc(NC(=O)c2cccc(N3C(=O)C4C5C=CC(C5)C4C3=O)c2)cc1C (stereo not given),"6.31 µM [falling, single point]",
Cc1ccccc1NC(=O)CCN1CCCC1,"6.31 µM [rising, single point]",
CCN(CC)P(=O)(Nc1ccc(C)cc1Br)c1ccc(N(C)C)cc1NC(=O)c1ccco1 (stereo not given),"35.5 µM [falling, single point]",
CC(C)(C)c1ccc(-c2ncccc2O)cc1,"0.708 µM [rising, full curve, poor fit]",
Cn1c(=O)c2c(nc(CN3CCC(C(N)=O)CC3)n2CCCc2ccccc2)n(C)c1=O,"13 µM [falling, single point]",
O=C(Nc1ccc2c(c1)C(=O)NC2=O)c1ccc2ncsc2c1,"15.8 µM [falling, partial curve, poor fit]",
Clc1ccccc1CN1CCC(Cc2ccccc2)CC1,"18.4 µM [rising, single point]",
O=S(=O)(c1ccc2ccccc2c1)N1CCCOC1,"31.6 µM [rising, single point]",
Cc1c(C(=O)C(=O)NCCC2=CCCCC2)c2ccccc2n1C,"10.3 µM [rising, partial curve, poor fit]",
CCOc1ccccc1NC=C1C(=O)OC(C)(C)OC1=O,"35.5 µM [rising, single point]",
COc1ccc(NC(=O)c2cccc(-n3c(C)ccc3C)c2)c(OC)c1,"7.31 µM [falling, partial curve]",
COc1ccc(-c2nsc(SCC(=O)NCc3ccc4c(c3)OCO4)n2)cc1,"2.31 µM [rising, full curve, poor fit]",

SMILES,AC50 [1],AC50 [2]
COc1cccc(/C=C2\SC(=S)N(CCC(=O)N3CCCCC3CCO)C2=O)c1 (stereo not given),"10 µM [falling, partial curve]",
N#C/C(=N\Nc1ccc(Br)cc1)C(=N)N1CCOCC1,"35.5 µM [falling, single point]",
Cc1ccc(/C=C2\SC(=S)N(C3CCS(=O)(=O)C3)C2=O)o1 (stereo not given),"20 µM [falling, partial curve, poor fit]",
O=C(c1cnn(-c2cccc(F)c2)c1)c1ccccc1O,"35.5 µM [falling, single point]",
Cc1cccc(/C=N/NC(=O)Cc2ccc(Cl)cc2)c1O,"0.282 µM [rising, full curve, poor fit]",
O=C(Nc1ccccc1)C(=O)Nc1ccc2c(c1)N(C(=O)C1CC1)CCC2,"4.11 µM [falling, partial curve]",
O=C(/C=C\c1ccccc1)Nc1nccs1,"3.26 µM [falling, full curve]",
COc1ccc(C(=O)C2CCCN(Cc3cnc(N4CCOCC4)s3)C2)cc1F (stereo not given),"12.6 µM [falling, partial curve, poor fit]",
COc1ccc2ccccc2c1/C=N/NC(=O)c1sc(N)c(C#N)c1C,"29.1 µM [falling, single point]",
O=C1NC(=O)[C@@H]2C3c4ccccc4C=CN3[C@H](C(=O)c3cccs3)[C@H]12 (stereo not given in full),"20 µM [falling, partial curve, poor fit]",
O=C1/C(=C/c2ccncc2)CCc2ccccc21,"17.8 µM [falling, single point]",
COc1ccc(N2CCN(C(c3ccccc3)c3sc4nc(-c5ccco5)nn4c3O)CC2)cc1 (stereo not given),"2.51 µM [rising, full curve, poor fit]",
CCc1ccc(NC(=O)C(C)OC(=O)c2cccc(S(=O)(=O)N3CCc4ccccc4C3)c2)cc1 (stereo not given),"5.8 µM [rising, partial curve]",
CCN1C(=O)/C(=C2/C=Cc3ccccc3N2CC)SC1=S,"35.5 µM [rising, single point]",
COc1ccc(C(=O)NC(=S)NNC(=O)Cc2cccs2)cc1,"2.82 µM [rising, full curve, poor fit]",
CSC1=N/C(=C\c2ccc(C)o2)C(=O)S1,"20 µM [rising, single point]",
CCSc1nc2ccc(OC)cc2cc1C#N,"1.46 µM [rising, full curve]",
Cc1nc(NCC2CCCO2)c2nnn(Cc3c(F)cccc3Cl)c2n1 (stereo not given),"35.5 µM [falling, partial curve, poor fit]",
O=C(NCCc1ccccc1)C(=O)c1c[nH]c2ccccc12,"1 µM [falling, full curve]",
O=c1[nH]cnc(O)c1N=Nc1ccccc1,"12.6 µM [falling, partial curve, poor fit]",

# Of the compounds above, 2 have a COOH group.
SMILES,AC50 [1],AC50 [2]
C[C@H](CO)N1C[C@H](C)[C@@H](CN(C)Cc2ccc(C(=O)O)cc2)Oc2c(NC(=O)C3CC3)cccc2C1=O,"23.1 µM [rising, partial curve, poor fit]",
Cc1cn(C)c(CC(=O)N2CCN(c3cccc(Cl)c3)CC2)c1C(=O)O,"12.6 µM [falling, single point]",
